For at least one compound, name, drawing or mass did not settle the structure.
System: 3T3L1 cells
Assay: Induction of adipocyte differentiation (Oil red O)
Assay type: cell-based
Conditions: treated for 8 days
Method: In vitro vascular studies were carried out in rat isolated aortae by wire myography. PPARγ activation was investigated using reporter gene assays, a PPARγ competition-binding assay and an adipogenesis assay.
Cells were fixed and stained with Oil red O to identify fat droplets, to the presence of which indicates differentiation of fibroblasts into adipocytes. […] […].

CN(CCOc1ccc(CC2SC(=O)NC2=O)cc1)c1ccccn1 (stereo not shown) [rosiglitazone, reference compound]
Differentiation of fibroblasts into adipocytes (Oil Red O staining of fat droplets): induced differentiation of 3T3 L1 cells to adipocytes
